Experimental data: PMC10620819
These are yes or no findings as the source states them, for the method shown. Binding seen in cells or lysates may run through a third protein. Some binding calls cover weakened binding; strength is not graded here. Sequences can lack the tags named with a protein. One block for each binder: values may come before it.

Legend:
[1] = biological target: T1, Breast Cancer Antiestrogen Resistance 1 (BCAR1), Flag-tagged (UniProt P56945); experiment: co-IP; whole lysates of AGS or HGC-27 cells; antibodies against HA tag or DYKDDDDK tag or IgG control at 4 °C overnight; Protein A/G PLUS agarose; PBST washes; western blotting
T1 sequence: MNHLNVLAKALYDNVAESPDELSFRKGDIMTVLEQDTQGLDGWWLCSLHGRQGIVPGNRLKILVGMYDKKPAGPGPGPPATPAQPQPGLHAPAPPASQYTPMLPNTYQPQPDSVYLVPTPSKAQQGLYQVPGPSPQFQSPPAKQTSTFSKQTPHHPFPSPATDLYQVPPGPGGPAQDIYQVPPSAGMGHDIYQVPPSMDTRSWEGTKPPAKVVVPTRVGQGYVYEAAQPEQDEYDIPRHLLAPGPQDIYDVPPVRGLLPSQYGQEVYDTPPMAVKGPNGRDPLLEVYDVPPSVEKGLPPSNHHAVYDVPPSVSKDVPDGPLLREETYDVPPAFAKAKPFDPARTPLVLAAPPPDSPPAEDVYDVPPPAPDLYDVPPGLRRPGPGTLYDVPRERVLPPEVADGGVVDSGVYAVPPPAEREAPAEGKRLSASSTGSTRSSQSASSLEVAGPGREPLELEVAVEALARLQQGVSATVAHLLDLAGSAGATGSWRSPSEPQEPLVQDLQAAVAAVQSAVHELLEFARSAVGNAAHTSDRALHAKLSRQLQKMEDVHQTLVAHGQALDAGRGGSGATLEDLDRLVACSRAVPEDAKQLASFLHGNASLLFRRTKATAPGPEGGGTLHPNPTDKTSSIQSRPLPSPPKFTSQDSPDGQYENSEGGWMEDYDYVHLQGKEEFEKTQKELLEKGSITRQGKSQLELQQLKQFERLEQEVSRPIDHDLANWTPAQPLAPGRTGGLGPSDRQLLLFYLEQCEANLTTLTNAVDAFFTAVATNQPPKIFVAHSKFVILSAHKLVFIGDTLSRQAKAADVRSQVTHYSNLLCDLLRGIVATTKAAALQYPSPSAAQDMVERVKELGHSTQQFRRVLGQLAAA

[2] = biological target: T2, Flotillin-1 (FLOT1), HA-tagged (UniProt O75955); experiment: as above
T2 sequence: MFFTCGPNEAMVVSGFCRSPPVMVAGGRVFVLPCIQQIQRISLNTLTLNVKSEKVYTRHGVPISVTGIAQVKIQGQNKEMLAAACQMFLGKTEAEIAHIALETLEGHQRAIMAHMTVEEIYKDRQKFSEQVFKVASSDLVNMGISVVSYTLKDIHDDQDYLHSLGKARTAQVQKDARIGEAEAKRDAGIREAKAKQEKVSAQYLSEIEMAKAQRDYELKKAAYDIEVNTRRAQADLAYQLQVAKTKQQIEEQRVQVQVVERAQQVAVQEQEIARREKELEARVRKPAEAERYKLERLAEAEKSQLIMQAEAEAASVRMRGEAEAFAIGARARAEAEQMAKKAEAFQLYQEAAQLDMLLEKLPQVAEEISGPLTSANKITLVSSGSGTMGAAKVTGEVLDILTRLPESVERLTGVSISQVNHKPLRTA

binding [1]: binds
B1: Flotillin-1 (FLOT1), HA-tagged (protein, UniProt O75955 1-427)
chain: T2 sequence

binding [2]: binds
B2: Breast Cancer Antiestrogen Resistance 1 (BCAR1), Flag-tagged (protein, UniProt P56945 1-870)
chain: T1 sequence
